# Assay results published in the supplement of paper PMC8728848.
# Some of the results follow.
# B1: a L Fucosidase (Thermotoga maritima) (protein)
# chain: MASMKPRYKPDWESLREHTVPKWFDKAKFGIFIHWGIYSVPGWATPTGELGKVPMDAWFFQNPYAEWYENSLRIKESPTWEYHVKTYGENFEYEKFADLFTAEKWDPQEWADLFKKAGAKYVIPTTKHHDGFCLWGTKYTDFNSVKRGPKRDLVGDLAKAVREAGLRFGVYYSGGLDWRFTTEPIRYPEDLSYIRPNTYEYADYAYKQVMELVDLYLPDVLWNNMGWPEKGKEDLKYLFAYYYNKHPEGSVNDRWGVPHWDFKTAEYHVNYPGDLPGYKWEFTRGIGLSFGYNRNEGPEHMLSVEQLVYTLVDVVSKGGNLLLNVGPKGDGTIPDLQKERLLGLGEWLRKYGDAIYGTSVWERCCAKTEDGTEIRFTRKCNRIFVIFLGIPTGEKIVIEDLNLSAGTVRHFLTGERLSFKNVGKNLEITVPKKLLETDSITLVLEAVEE
# Assays:
# Test in all cases: glycan array binding signal (z-score within array); higher = stronger binding
# Settings in all cases: glycan notation: IUPAC condensed, linker removed; mutation: D224N
# [1] = target: GlcNAc(b1-3)Gal(b1-4)GlcNAc(b1-3)Gal(b1-4)GlcNAc(b1-3)Gal(b1-4)GlcNAc(b1-3)Gal(b1-4)GlcNAc(b1-2)[GlcNAc(b1-3)Gal(b1-4)GlcNAc(b1-3)Gal(b1-4)GlcNAc(b1-3)Gal(b1-4)GlcNAc(b1-3)Gal(b1-4)GlcNAc(b1-6)]Man(a1-6)[GlcNAc(b1-3)Gal(b1-4)GlcNAc(b1-3)Gal(b1-4)GlcNAc(b1-3)Gal(b1-4)GlcNAc(b1-3)Gal(b1-4)GlcNAc(b1-2)Man(a1-3)]Man(b1-4)GlcNAc(b1-4)[Fuc(a1-6)]GlcNAc
# Outline: (§1)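 The binding signal is a Z-score computed within each array. Data were drawn from 3228 arrays in the Consortium for Functional Glycomics database, restricted to those with a known protein sequence. Scores were averaged over arrays of the same protein sequence at different concentrations or buffers, and over linkers, and negative values can be taken as non-binding.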
# [2] = target: GlcNAc(b1-3)Gal(b1-4)GlcNAc(b1-3)Gal(b1-4)GlcNAc(b1-3)GalNAc
# Outline: as §1
# [3] = target: GlcNAc(b1-3)Gal(b1-4)GlcNAc(b1-3)GalNAc
# Outline: as §1
# [4] = target: GlcNAc(b1-3)Gal(b1-4)GlcNAc(b1-3)[GlcNAc(b1-3)Gal(b1-4)GlcNAc(b1-3)]GalNAc
# Outline: as §1
# [5] = target: GlcNAc(b1-3)Gal(b1-4)GlcNAc(b1-6)[Gal(b1-3)]GalNAc
# Outline: as §1
# [6] = target: GlcNAc(b1-3)Gal(b1-4)GlcNAc(b1-6)[GlcNAc(b1-3)Gal(b1-3)]GalNAc
# Outline: as §1
# [7] = target: GlcNAc(b1-3)Gal(b1-4)GlcNAc(b1-6)[GlcNAc(b1-3)]Gal(b1-4)GlcNAc
# Outline: as §1
# [8] = target: GlcNAc(b1-3)GalNAc
# Outline: as §1
# [9] = target: GlcNAc(b1-3)Man
# Outline: as §1
# [10] = target: GlcNAc(b1-3)[GlcNAc(b1-4)][GlcNAc(b1-6)]GlcNAc
# Outline: as §1
# [11] = target: GlcNAc(b1-3)[GlcNAc(b1-6)]Gal(b1-4)GlcNAc
# Outline: as §1
# [12] = target: GlcNAc(b1-3)[GlcNAc(b1-6)]GalNAc
# Outline: as §1
# [13] = target: GlcNAc(b1-4)Gal(b1-4)GlcNAc
# Outline: as §1
# [14] = target: GlcNAc(b1-4)GlcNAc
# Outline: as §1
# [15] = target: GlcNAc(b1-4)GlcNAc(b1-4)GlcNAc
# Outline: as §1
# [16] = target: GlcNAc(b1-4)GlcNAc(b1-4)GlcNAc(b1-4)GlcNAc(b1-4)GlcNAc
# Outline: as §1
# [17] = target: GlcNAc(b1-4)GlcNAc(b1-4)GlcNAc(b1-4)GlcNAc(b1-4)GlcNAc(b1-4)GlcNAc
# Outline: as §1
# [18] = target: GlcNAc(b1-4)[GlcNAc(b1-6)]GalNAc
# Outline: as §1
# [19] = target: GlcNAc(b1-6)Gal(b1-4)GlcNAc
# Outline: as §1
# [20] = target: GlcNAc(b1-6)GalNAc
# Outline: as §1
# [21] = target: GlcNAc6S(b1-3)Gal(b1-4)GlcNAc
# Outline: as §1
# [22] = target: Kdn(a2-3)Gal(b1-3)GalNAc
# Outline: as §1
# [23] = target: Kdn(a2-3)Gal(b1-3)GlcNAc
# Outline: as §1
# [24] = target: Kdn(a2-3)Gal(b1-4)Glc
# Outline: as §1
# [25] = target: Kdn(a2-3)Gal(b1-4)GlcNAc
# Outline: as §1
# [26] = target: Kdn(a2-3)Gal(b1-4)[Fuc(a1-3)]GlcNAc
# Outline: as §1
# [27] = target: Kdn(a2-6)Gal(b1-4)GlcNAc
# Outline: as §1
# [28] = target: Man(a1-2)Man(a1-2)Man(a1-3)Man
# Outline: as §1
# [29] = target: Man(a1-2)Man(a1-2)Man(a1-6)[Man(a1-3)]Man
# Outline: as §1
# [30] = target: Man(a1-2)Man(a1-3)Man
# Outline: as §1
# [31] = target: Man(a1-2)Man(a1-3)[Man(a1-2)Man(a1-6)]Man
# Outline: as §1
# [32] = target: Man(a1-2)Man(a1-3)[Man(a1-2)Man(a1-6)]Man(a1-6)[Man(a1-2)Man(a1-2)Man(a1-3)]Man
# Outline: as §1
# [33] = target: Man(a1-2)Man(a1-3)[Man(a1-2)Man(a1-6)]Man(a1-6)[Man(a1-2)Man(a1-2)Man(a1-3)]Man(b1-4)GlcNAc(b1-4)GlcNAc
# Outline: as §1
# [34] = target: Man(a1-2)Man(a1-3)[Man(a1-6)]Man(a1-6)[Man(a1-2)Man(a1-3)]Man(b1-4)GlcNAc(b1-4)GlcNAc
# Outline: as §1
# [35] = target: Man(a1-2)Man(a1-6)[Man(a1-3)]Man(a1-6)[Man(a1-2)Man(a1-2)Man(a1-3)]Man
# Outline: as §1
# [36] = target: Man(a1-2)Man(a1-6)[Man(a1-3)]Man(a1-6)[Man(a1-2)Man(a1-2)Man(a1-3)]Man(b1-4)GlcNAc(b1-4)GlcNAc
# Outline: as §1
# [37] = target: Man(a1-3)[Man(a1-6)]Man
# Outline: as §1
binder,measurement,setting,value
B1,glycan array binding signal (z-score),[1],1.08
same,glycan array binding signal (z-score),[2],0.501
same,glycan array binding signal (z-score),[3],-0.588
same,glycan array binding signal (z-score),[4],-0.682
same,glycan array binding signal (z-score),[5],-0.942
same,glycan array binding signal (z-score),[6],1.65
same,glycan array binding signal (z-score),[7],0.033
same,glycan array binding signal (z-score),[8],-0.409
same,glycan array binding signal (z-score),[9],0.794
same,glycan array binding signal (z-score),[10],-0.885
same,glycan array binding signal (z-score),[11],-0.122
same,glycan array binding signal (z-score),[12],-0.44
same,glycan array binding signal (z-score),[13],0.482
same,glycan array binding signal (z-score),[14],-0.204
same,glycan array binding signal (z-score),[15],-0.381
same,glycan array binding signal (z-score),[16],0.509
same,glycan array binding signal (z-score),[17],-0.515
same,glycan array binding signal (z-score),[18],-0.289
same,glycan array binding signal (z-score),[19],-0.598
same,glycan array binding signal (z-score),[20],-0.336
same,glycan array binding signal (z-score),[21],1.52
same,glycan array binding signal (z-score),[22],1.77
same,glycan array binding signal (z-score),[23],-0.53
same,glycan array binding signal (z-score),[24],0.508
same,glycan array binding signal (z-score),[25],0.012
same,glycan array binding signal (z-score),[26],0.051
same,glycan array binding signal (z-score),[27],-0.096
same,glycan array binding signal (z-score),[28],1.06
same,glycan array binding signal (z-score),[29],-0.125
same,glycan array binding signal (z-score),[30],-0.9
same,glycan array binding signal (z-score),[31],0.714
same,glycan array binding signal (z-score),[32],-0.006
same,glycan array binding signal (z-score),[33],-0.817
same,glycan array binding signal (z-score),[34],-0.333
same,glycan array binding signal (z-score),[35],-0.688
same,glycan array binding signal (z-score),[36],-0.728
same,glycan array binding signal (z-score),[37],0.332

# Fetched one by one from above:
binder,measurement,setting,value
B1,glycan array binding signal (z-score),[30],-0.9
same,glycan array binding signal (z-score),[35],-0.688
same,glycan array binding signal (z-score),[8],-0.409
